Where a name gives a salt, the structure may show the parent alone. This is one part of the list. This data set is noisy: repeats of one test often differ as much as different tests do.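 Test system: Schistosoma mansoni schistosomula, roughly 40 per well, imaged in bright field over time and compared with wells given 0.1% DMSO. Distance read-out: the paper calls a drug a hit when its Mahalanobis distance is at least 2.47, three standard deviations above the DMSO control mean. Degeneracy is the share of worms classified opaque.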
System: Schistosoma mansoni schistosomula
Test: Mahalanobis distance of static-rate-frequency phenotype descriptors from DMSO controls (dimensionless); higher = stronger phenotypic change versus DMSO
Settings: 10 µM; 72 h

Row | Structure (SMILES) | Mahalanobis distance
1 | CO/N=C(\C(=O)N[C@@H]1C(=O)N2C(C(=O)O)=C(CSc3nc(=O)c(O)nn3C)CS[C@H]12)c1csc(N)n1 [Ceftriaxone Sodium Trihydrate] | inactive: 2.34
2 | CC(C)(C)NC[C@H](O)COc1nsnc1N1CCOCC1 [Timolol Maleate] | inactive: 1.68
3 | CC(C)(C)NC[C@H](O)COc1nsnc1N1CCOCC1 [Timolol] | inactive: 1.37
4 | NCCCC[C@H](N[C@@H](CCc1ccccc1)C(=O)O)C(=O)N1CCC[C@H]1C(=O)O [Lisinopril] | inactive: 1.88
5 | Nc1nc(Cl)nc2c1ncn2[C@@H]1O[C@H](CO)[C@@H](O)[C@@H]1F [Clofarabine] | inactive: 1.23
6 | O=C1CN2Cc3c(ccc(Cl)c3Cl)N=C2N1 [Anagrelide Hydrochloride] | inactive: 1.47
7 | CC[C@H]1OC(=O)[C@H](C)[C@@H](O[C@H]2C[C@@](C)(OC)[C@@H](O)[C@H](C)O2)[C@H](C)[C@@H](O[C@@H]2O[C@H](C)C[C@H](N(C)C)[C@H]2O)[C@](C)(O)C[C@@H](C)/C(=N\OCOCCOC)[C@H](C)[C@@H](O)[C@]1(C)O [Roxithromycin] | inactive: 1.4
8 | C=C1CC[C@H](O)C/C1=C/C=C1\CCC[C@]2(C)[C@@H]([C@H](C)CCCC(C)(C)O)CC[C@@H]12 [Calcifediol] | inactive: 2.39
9 | CC(=O)N[C@@H](CC(C)C)C(=O)O [Acetyl-l-leucine] | inactive: 1.35
10 | Nc1nc(=O)c2nc(CNc3ccc(C(=O)N[C@@H](CCC(=O)O)C(=O)O)cc3)cnc2[nH]1 [Folic Acid] | inactive: 1.89
11 | CC(C)C[C@H](NC(=O)[C@@H](Cc1c[nH]c2ccccc12)NC(=O)[C@H](Cc1ccc(O)cc1)NC(=O)[C@H](CO)NC(=O)[C@H](Cc1c[nH]c2ccccc12)NC(=O)[C@H](Cc1c[nH]cn1)NC(=O)[C@@H]1CCC(=O)N1)C(=O)N[C@@H](CCCNC(=N)N)C(=O)N1CCC[C@H]1C(=O)NCC(N)=O [Triptorelin] | inactive: 2.08
12 | NC(CO)(CO)CO [Tromethamine] | active: 2.52
13 | CN(C)CCN(Cc1cccs1)c1ccccn1 [Methapyrilene] | inactive: 1.71
14 | NC(=O)N1c2ccccc2C=Cc2ccccc21 [Carbamazepine] | inactive: 1.89
15 | CO[C@H]1/C=C/O[C@@]2(C)Oc3c(C)c(O)c4c(c3C2=O)C2=NC3(CCN(CC(C)C)CC3)NC2=C(NC(=O)/C(C)=C\C=C\[C@H](C)[C@H](O)[C@@H](C)[C@@H](O)[C@@H](C)[C@H](OC(C)=O)[C@@H]1C)C4=O [Rifabutin] | inactive: 2.02
16 | CC(=O)OCC(COC(C)=O)OC(C)=O [Triacetin] | inactive: 1.34
17 | C[C@H]1[C@@H](O)O[C@@H]2O[C@@]3(C)CC[C@H]4[C@H](C)CC[C@@H]1[C@@]24OO3 [Artenimol] | active: 3.6
18 | CCCCCC(C)N (stereo unspecified) [Tuaminoheptane Sulfate] | inactive: 2.26
19 | O=C(CCCN1CC=C(n2c(=O)[nH]c3ccccc32)CC1)c1ccc(F)cc1 [Droperidol] | inactive: 2.39
20 | CCN(CC)CCNC(=O)c1cc(S(C)(=O)=O)ccc1OC [Tiapride] | inactive: 2.14
21 | CCn1cc(C(=O)O)c(=O)c2cnc(N3CCNCC3)nc21 [Pipemidic Acid] | inactive: 1.56
22 | COc1cc2nc(N3CCN(C(=O)c4ccco4)CC3)nc(N)c2cc1OC [prazosin] | inactive: 1.89

Row | Structure (SMILES) | Mahalanobis distance
23 | NCCS(=O)(=O)O [Taurine] | active: 3.25
24 | CC(=O)N[C@@H](CC(=O)N[C@@H](CCC(=O)O)C(=O)O)C(=O)O [Spaglumic Acid] | inactive: 1.87
25 | Cc1ccc(S(=O)(=O)NC(=O)NN2CC3CCCC3C2)cc1 (stereo unspecified) [Gliclazide] | inactive: 2.26
26 | COc1ccc2[nH]cc(CCNC(C)=O)c2c1 [Melatonin] | active: 3.27
27 | Cc1ccc(C(=O)c2cc(O)c(O)c([N+](=O)[O-])c2)cc1 [Tolcapone] | inactive: 1.44
28 | NC[C@H]1O[C@H](O[C@H]2[C@H](O[C@@H]3O[C@H](CO)[C@@H](O)[C@H]3O)[C@@H](O)[C@H](N)C[C@@H]2N)[C@H](N)[C@@H](O)[C@@H]1O [Ribostamycin Sulfate] | inactive: 1.24
29 | C=CC[C@@H]1/C=C(\C)C[C@H](C)C[C@H](OC)[C@H]2O[C@@](O)(C(=O)C(=O)N3CCCC[C@H]3C(=O)O[C@H](/C(C)=C/[C@@H]3CC[C@@H](O)[C@H](OC)C3)[C@H](C)[C@@H](O)CC1=O)[C@H](C)C[C@@H]2OC [Tacrolimus] | inactive: 2.01
30 | CC(C)N1CCN(c2ccc(OCC3COC(Cn4cncn4)(c4ccc(Cl)cc4Cl)O3)cc2)CC1 (stereo unspecified) [Terconazole] | active: 2.92
31 | CN1C2CCCC1CC(NC(=O)c1nn(C)c3ccccc13)C2 (stereo unspecified) [Granisetron] | active: 3.3
32 | OC(CCN1CCCCC1)(c1ccccc1)C1CC2C=CC1C2 (stereo unspecified) [Biperiden] | active: 2.84
33 | Cc1ncc([N+](=O)[O-])n1CCO [Metronidazole] | inactive: 2.05
34 | CCN(Cc1ccncc1)C(=O)C(CO)c1ccccc1 (stereo unspecified) [Tropicamide] | active: 2.74
35 | CCN1CCN(C(=O)N[C@@H](C(=O)N[C@@H]2C(=O)N3[C@@H]2SC(C)(C)[C@@H]3C(=O)O)c2ccccc2)C(=O)C1=O [Piperacillin Sodium] | active: 2.54
36 | CCN1CCN(C(=O)N[C@@H](C(=O)N[C@@H]2C(=O)N3[C@@H]2SC(C)(C)[C@@H]3C(=O)O)c2ccccc2)C(=O)C1=O [Piperacillin] | inactive: 1.62
37 | CC(=O)Oc1cccc(O)c1 [Resorcinol Monoacetate] | inactive: 2.25
38 | CO[C@@H]1[C@@H](OC(N)=O)[C@@H](O)[C@H](Oc2ccc3c(O)c(NC(=O)c4ccc(O)c(CC=C(C)C)c4)c(=O)oc3c2C)OC1(C)C [Novobiocin Sodium] | inactive: 2.36
39 | O=C(O[C@H]1CN2CCC1CC2)N1CCc2ccccc2[C@@H]1c1ccccc1 [Solifenacin Succinate] | active: 3.66
40 | CN1CCCCC1CCN1c2ccccc2Sc2ccc([S+](C)[O-])cc21 (stereo unspecified) [Mesoridazine Besylate] | inactive: 2.47
41 | CN1CCCC(n2nc(Cc3ccc(Cl)cc3)c3ccccc3c2=O)CC1 (stereo unspecified) [azelastine] | inactive: 2.42
42 | O=C(CNC(=O)c1ccc(Cl)cc1)NO [Benurestat] | inactive: 1.44
43 | CCCC(=O)Nc1ncnc2c1ncn2[C@@H]1O[C@@H]2COP(=O)(O)O[C@H]2[C@H]1OC(=O)CCC [Bucladesine] | inactive: 2.32
44 | CC1=CC(=O)NS(=O)(=O)O1 [Acesulfame Potassium] | inactive: 1.41

Random excerpt: 3 entries already listed
Row | Structure (SMILES) | Mahalanobis distance
41 | CN1CCCC(n2nc(Cc3ccc(Cl)cc3)c3ccccc3c2=O)CC1 (stereo unspecified) [azelastine] | inactive: 2.42
42 | O=C(CNC(=O)c1ccc(Cl)cc1)NO [Benurestat] | inactive: 1.44
33 | Cc1ncc([N+](=O)[O-])n1CCO [Metronidazole] | inactive: 2.05

(cont.)

Row | Structure (SMILES) | Mahalanobis distance
45 | C=C1C[C@H]2[C@@H]3C=C(C)C4=CC(=O)CC[C@]4(C)[C@H]3CC[C@]2(C)[C@@]1(OC(C)=O)C(C)=O [Melengestrol Acetate] | active: 3.32
46 | CC(=O)Oc1cccc2c1C(=O)c1c(OC(C)=O)cc(C(=O)O)cc1C2=O [Diacerin] | inactive: 1.44
47 | N=C(N)NC(=N)N1CCOCC1 [Moroxydine Hydrochloride] | active: 4.07
48 | COc1ccc(NS(=O)(=O)c2ccc(N)cc2)nn1 [Sulfamethoxypyridazine] | inactive: 2.18
49 | Nc1ccc(C(=O)NCC(=O)O)cc1 [Aminohippuric Acid] | inactive: 2.11
50 | CCC[C@H](N[C@@H](C)C(=O)N1[C@H](C(=O)O)C[C@@H]2CCCC[C@@H]21)C(=O)OCC [Perindopril Erbumine] | active: 3.39
51 | N=C(N)NCC1COC2(CCCCC2)O1 (stereo unspecified) [Guanadrel Sulfate] | inactive: 1.54
52 | CC1(C)OC(=O)NC1=O [Dimethadione] | inactive: 1.82
53 | OCCN1CCN(CCCN2c3ccccc3Sc3ccc(Cl)cc32)CC1 [perphenazine] | inactive: 1.53
54 | CN(C)CCc1c[nH]c2ccc(Cn3cncn3)cc12 [Rizatriptan Benzoate] | inactive: 2.29
55 | Nc1ccc(S(=O)(=O)c2ccc(N)cc2)cc1 [Dapsone] | inactive: 2.25
56 | CC[N+](C)(C)Cc1ccccc1Br [Bretylium Tosylate] | inactive: 1.82
57 | Cc1onc(-c2c(Cl)cccc2Cl)c1C(=O)N[C@@H]1C(=O)N2[C@@H]1SC(C)(C)[C@@H]2C(=O)O [Dicloxacillin Sodium] | inactive: 1.77
58 | CN1C(C)(C)CCCC1(C)C [Pempidine Tartrate] | inactive: 1.47
59 | CC(CCc1ccccc1)NCC(O)c1ccc(O)c(C(N)=O)c1 (stereo unspecified) [Labetalol] | active: 2.5
60 | CCOC(=O)[C@H](CCc1ccccc1)N[C@@H](C)C(=O)N1Cc2ccccc2C[C@H]1C(=O)O [Quinapril] | inactive: 1.59
61 | O=C(O)c1cccnc1Nc1cccc(C(F)(F)F)c1 [Niflumic Acid] | inactive: 1.76
62 | CC1CC(OC(=O)C(O)c2ccccc2)CC(C)(C)C1 (stereo unspecified) [Cyclandelate] | inactive: 2.47
63 | CCCCCCc1ccc(O)cc1O.Nc1c2ccccc2nc2ccccc12 [Acrisorcin] | inactive: 2.25
64 | CC1(C)S[C@@H]2[C@H](NC(=O)[C@H](NC(=O)N3CCNC3=O)c3ccccc3)C(=O)N2[C@H]1C(=O)O [Azlocillin] | active: 4.15
65 | CC(C)c1ccc2oc3nc(N)c(C(=O)O)cc3c(=O)c2c1 [Amlexanox] | inactive: 1.07
66 | NC(=O)c1cc[n+](CC2=C(C(=O)O)N3C(=O)[C@@H](NC(=O)[C@@H](c4ccccc4)S(=O)(=O)[O-])[C@H]3SC2)cc1 [Cefsulodin Sodium] | inactive: 1.9

— the supplement of paper PMC7752906
